Measured values published in doi:10.1101/2021.10.11.463904 (bioRxiv, 2021).
Where two headings read alike, the source gives them in different places. No constants are given. Whether binding was seen depends on the method and setting. Some entries that bind do so weakly or less than the wild type.

Amino acid sequences for entries named in this document (tags omitted). A change or cut given only in a name is not applied to a line headed by its entry. Chains listed by the source or under a name are the forms on record and can include a tag or linker. Residues count along the entry.
BiP (P20029, residues 20-655): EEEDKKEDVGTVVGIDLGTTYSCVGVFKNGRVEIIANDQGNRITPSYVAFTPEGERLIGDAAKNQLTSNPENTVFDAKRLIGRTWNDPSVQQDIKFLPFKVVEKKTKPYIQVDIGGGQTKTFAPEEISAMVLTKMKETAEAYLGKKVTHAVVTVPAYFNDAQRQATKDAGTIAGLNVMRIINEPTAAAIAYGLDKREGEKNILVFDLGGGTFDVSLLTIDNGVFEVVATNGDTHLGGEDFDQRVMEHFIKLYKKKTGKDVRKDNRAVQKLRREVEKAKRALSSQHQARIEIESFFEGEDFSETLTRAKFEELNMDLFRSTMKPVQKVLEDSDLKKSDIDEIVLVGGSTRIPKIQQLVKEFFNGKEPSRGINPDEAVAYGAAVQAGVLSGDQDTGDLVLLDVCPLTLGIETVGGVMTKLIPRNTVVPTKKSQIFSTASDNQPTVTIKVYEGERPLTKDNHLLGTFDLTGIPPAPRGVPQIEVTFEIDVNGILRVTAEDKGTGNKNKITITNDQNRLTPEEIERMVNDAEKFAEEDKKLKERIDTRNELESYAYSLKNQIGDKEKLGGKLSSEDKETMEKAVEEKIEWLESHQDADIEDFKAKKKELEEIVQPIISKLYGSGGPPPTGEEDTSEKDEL
FITC-labeled BiP D27C (P20029, form named): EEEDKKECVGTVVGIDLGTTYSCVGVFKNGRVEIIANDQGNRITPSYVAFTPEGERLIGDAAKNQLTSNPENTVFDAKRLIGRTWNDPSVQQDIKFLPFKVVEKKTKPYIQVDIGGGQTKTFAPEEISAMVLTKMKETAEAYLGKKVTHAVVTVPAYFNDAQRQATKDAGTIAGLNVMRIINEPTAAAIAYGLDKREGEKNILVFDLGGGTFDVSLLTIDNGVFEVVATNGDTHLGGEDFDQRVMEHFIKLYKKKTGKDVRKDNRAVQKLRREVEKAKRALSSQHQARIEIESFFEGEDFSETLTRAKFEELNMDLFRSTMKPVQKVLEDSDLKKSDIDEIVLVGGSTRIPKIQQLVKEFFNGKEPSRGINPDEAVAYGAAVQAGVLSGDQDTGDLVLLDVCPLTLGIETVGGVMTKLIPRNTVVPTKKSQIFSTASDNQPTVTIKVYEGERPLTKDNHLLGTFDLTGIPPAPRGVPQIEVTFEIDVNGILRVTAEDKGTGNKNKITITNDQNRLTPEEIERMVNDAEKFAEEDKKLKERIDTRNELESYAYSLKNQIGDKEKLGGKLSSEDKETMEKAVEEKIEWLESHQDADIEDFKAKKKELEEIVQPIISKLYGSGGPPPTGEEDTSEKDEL
UniProt P02769, residues 25-607: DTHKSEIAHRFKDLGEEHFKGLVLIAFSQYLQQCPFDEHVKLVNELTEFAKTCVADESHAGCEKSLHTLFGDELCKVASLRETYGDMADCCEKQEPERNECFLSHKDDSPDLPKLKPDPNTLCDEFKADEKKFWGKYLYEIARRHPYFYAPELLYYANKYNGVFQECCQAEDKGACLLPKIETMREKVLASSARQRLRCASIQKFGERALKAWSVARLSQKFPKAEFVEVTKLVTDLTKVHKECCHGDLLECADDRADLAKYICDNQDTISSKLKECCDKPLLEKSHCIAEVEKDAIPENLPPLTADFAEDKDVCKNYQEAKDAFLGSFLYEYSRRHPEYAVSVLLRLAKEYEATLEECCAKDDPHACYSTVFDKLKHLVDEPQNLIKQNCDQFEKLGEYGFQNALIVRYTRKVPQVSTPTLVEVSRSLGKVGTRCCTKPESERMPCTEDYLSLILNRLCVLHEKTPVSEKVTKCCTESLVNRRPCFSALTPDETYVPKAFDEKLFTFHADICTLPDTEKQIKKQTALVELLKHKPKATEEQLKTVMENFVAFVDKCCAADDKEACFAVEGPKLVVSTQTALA
UniProt P08113, residues 22-802: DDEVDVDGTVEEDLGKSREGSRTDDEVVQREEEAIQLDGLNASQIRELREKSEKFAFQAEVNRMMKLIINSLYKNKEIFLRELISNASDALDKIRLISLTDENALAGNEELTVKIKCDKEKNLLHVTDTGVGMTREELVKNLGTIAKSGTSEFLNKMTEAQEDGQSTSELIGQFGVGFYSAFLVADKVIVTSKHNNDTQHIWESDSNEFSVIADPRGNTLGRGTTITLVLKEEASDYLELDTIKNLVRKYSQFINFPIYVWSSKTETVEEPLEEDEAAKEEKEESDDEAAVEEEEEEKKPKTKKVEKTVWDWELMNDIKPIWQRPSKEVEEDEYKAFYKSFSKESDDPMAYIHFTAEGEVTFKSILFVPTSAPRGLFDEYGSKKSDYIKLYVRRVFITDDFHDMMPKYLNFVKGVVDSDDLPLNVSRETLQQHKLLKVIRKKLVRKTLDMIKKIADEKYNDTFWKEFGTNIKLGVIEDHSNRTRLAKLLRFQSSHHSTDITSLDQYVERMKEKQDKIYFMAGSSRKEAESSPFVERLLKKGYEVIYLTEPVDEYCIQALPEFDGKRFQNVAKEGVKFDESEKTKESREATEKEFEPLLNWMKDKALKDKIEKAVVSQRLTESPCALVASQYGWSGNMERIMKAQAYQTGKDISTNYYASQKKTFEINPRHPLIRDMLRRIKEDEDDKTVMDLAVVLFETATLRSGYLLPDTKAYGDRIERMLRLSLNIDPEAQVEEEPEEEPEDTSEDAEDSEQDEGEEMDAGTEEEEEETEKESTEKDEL

Assays:
Test in all cases: fluorescence polarisation
[1] = target: FITC-E-peptide 121-139 (Mus musculus) (UniProt P09535)
[2] = target: FITC-E-peptide 151-169 (Mus musculus) (UniProt P09535)
[3] = target: FITC-E-peptide 121-139 (Mus musculus) (UniProt P09535); remark: listed apart in the source
[4] = target: FITC-E-peptide 151-169 (Mus musculus) (UniProt P09535); remark: listed apart in the source
[5] = target: FITC-E-peptide 121-139 (Mus musculus) (UniProt P09535); remark: listed apart in the source
[6] = target: T1, FITC-E-peptide 92-139 (Mus musculus) (UniProt P09535)
T1 sequence (chain, FITC-maleimide on the cysteine at 95 (S95C)): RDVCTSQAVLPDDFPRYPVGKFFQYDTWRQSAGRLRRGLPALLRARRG

[7] = target: T2, FITC-E-peptide 103-120 (Mus musculus) (UniProt P09535)
T2 sequence (peptide, FITC on the N-terminus via an amino hexanoic acid linker): DDFPRYPVGKFFQYDTWR

[8] = target: T3, FITC-E-peptide 92-120 (Mus musculus) (UniProt P09535)
T3 sequence (chain, FITC-maleimide on the cysteine at 95 (S95C)): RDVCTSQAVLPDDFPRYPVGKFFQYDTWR

FITC-labeled BiP D27C [9] = target: FITC-labeled BiP D27C (UniProt P20029)
FITC-labeled BiP D27C [10] = target: FITC-labeled BiP D27C (UniProt P20029); remark: listed apart in the source
[11] = target: T2, FITC-E-peptide 103-120 (Mus musculus); remark: listed apart in the source
BiP = BiP (UniProt P20029)

Q: For BSA (from UniProt P02769 25-607), which binding [1] is on record?
A: The binding was “no binding”.

Q: And the binding [2]?
A: Its binding is “no binding”.

Q: With BiP (from UniProt P20029 20-655) as the molecule, how does the binding [3] read?
A: Its binding is “binds weakly”.

Q: And the binding [4]?
A: The binding was “binds weakly”.

Q: And the binding [5]?
A: Its binding is “binds”.

Q: What about the binding [6] of the same molecule?
A: The binding was “binds”.

Q: And the binding [7]?
A: The binding was “binds weakly”.

Q: And the binding [8]?
A: The binding was “binds”.

Q: What about the binding [1] of the same molecule?
A: The binding was “binds weakly”.

Q: What about the binding [2] of the same molecule?
A: The binding was “binds weakly”.

Q: Which results are given for Grp94 (from UniProt P08113 22-802)?
A: binding [7]: binds weakly; binding [1]: binds weakly; binding [2]: binds weakly

Q: For proIGF2 (from UniProt P09535 25-180), which binding (FITC-labeled BiP D27C [9]) is on record?
A: The binding was “binds”.

Q: What about the binding (FITC-labeled BiP D27C [10]) of the same molecule?
A: The binding was “binds”.

Q: For DDFPRYPVGKFFQYDTWR (peptide, UniProt P09535 103-120, FITC on the N-terminus via an amino hexanoic acid linker) [FITC-E-peptide 103-120], which binding [11] is on record?
A: The binding was “no binding (tested: 50 nM)”.

Q: Which binding (BiP) does the source give for RDVCTSQAVLPDDFPRYPVGKFFQYDTWR (domain or fragment, UniProt P09535 92-120) [extended site 1 (competitor in the displacement experiment)] here?
A: The binding was “binds”.
